Results from one PubChem assay

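Human aldehyde dehydrogenase 1A3 (retinaldehyde dehydrogenase 3) is screened for compounds that block its enzyme activity across a concentration series; the incubation time is not stated here.
Each compound was run as a concentration series reaching mostly up to 56 µM.
The value is a fitted potency (AC50) for inhibition of the enzyme; a lower number means a more potent inhibitor.
Calls follow the shape of the inhibition curve; every row here is inconclusive, covering weak, partial, poorly fitted or single-point inhibition.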

Values are in µM.
All entries here are filed as inconclusive.
Only part of the assay is shown, chiefly results filed as inconclusive.
Potencies fitted to partial, single-point or poorly fitting curves are rough.
Some entries filed as inconclusive have a full curve.

| # | structure | potency (µM) | curve |
|---|---|---|---|
| 1 | `C=C1CC[C@H]2[C@@](C)(CCC(OC3OC(CO)C(O)C(O)C3O)[C@@]2(C)CO)C1C(=O)CC1=CCOC1=O` (stereo partly specified) | 10 | inhibitor, partial curve |
| 2 | `COc1cc(O)c2c(c1)C1OC1C[C@H](O)[C@H](O)C(=O)/C=C\C[C@H](C)OC2=O` (stereo partly specified) | 3.162 | inhibitor, partial curve, poor fit |
| 3 | `COc1cc(N2CCC(N3CCN(C)CC3)CC2)ccc1Nc1ncc(Cl)c(Nc2ccccc2S(=O)(=O)C(C)C)n1` | 3.162 | inhibitor, partial curve, poor fit |
| 4 | `CNC(=O)Oc1ccc2c(c1)[C@]1(C)CCN(C)[C@@H]1N2C` | 28.18 | inhibitor, single point |
| 5 | `CC(C)n1nc(-c2cc3cc(O)ccc3[nH]2)c2c(N)ncnc21` | 14.13 | inhibitor, partial curve |
| 6 | `COc1cc(N2CCC(O)CC2)ccc1Nc1cc(Nc2ccccc2S(=O)(=O)C(C)C)c2cc[nH]c2n1` | 3.548 | inhibitor, full curve, poor fit |
| 7 | `N#Cc1ccc(-c2ccc(CNc3ccc(N4CCC(C(F)(F)F)CC4)cc3)o2)cc1` | 31.62 | inhibitor, partial curve, poor fit |
| 8 | `CC1=CC2=C(C)C(=O)[C@](C)(O)[C@H](O)C2=CO1` | 39.81 | inhibitor, single point |
| 9 | `COc1ccccc1C(=O)Nc1cc2c(cc1N1CCCC1)n(C)c(=O)n2C` | 14.13 | inhibitor, partial curve, poor fit |
| 10 | `CC1(C)CC[C@]2(C(=O)O)CC[C@]3(C)C(=CCC4[C@@]5(C)C[C@@H](O)[C@H](O)[C@@](C)(CO)C5CC[C@]43C)[C@@H]2[C@@H]1O` (stereo partly specified) | 7.08 | inhibitor, partial curve |
| 11 | `COc1cc(C(O)C2COC(c3ccc(OC4OC(CO)C(O)C(O)C4O)c(OC)c3)C2CO)ccc1O` (stereo unspecified) | 8.912 | inhibitor, partial curve |
| 12 | `N#CCNC(=O)c1ccc(-c2ccnc(Nc3ccc(N4CCOCC4)cc3)n2)cc1` | 5.012 | inhibitor, partial curve, poor fit |
| 13 | `C=C1CC2OC(=O)C(=C)C2C(O)/C=C(\C)CCC1O` (stereo unspecified) | 19.95 | inhibitor, partial curve, poor fit |
| 14 | `COc1cc(N2CCOCC2)ccc1Nc1ncc(F)c(Nc2ccccc2NS(C)(=O)=O)n1` | 1.995 | inhibitor, partial curve, poor fit |
| 15 | `C=C1CC[C@@H]2[C@](C)(CO)[C@H](O[C@@H]3O[C@H](CO)[C@@H](O)[C@H](O)[C@H]3O)CC[C@@]2(C)[C@@H]1C/C=C1/C(=O)OC[C@H]1O` | 11.22 | inhibitor, single point |
| 16 | `NCCCNc1ncnc2ccc(-c3ccc4c(c3)OCO4)cc12` | 14.13 | inhibitor, partial curve, poor fit |
| 17 | `Cc1ccc([N+](=O)[O-])cc1S(=O)(=O)N(C)/N=C/c1cnc2ccc(Br)cn12` | 3.548 | inhibitor, single point |
| 18 | `C/C=C/C1=CC2=C(CO1)C(=O)C(C)(O)C(OC(=O)c1c(C)cc(OC)cc1O)C2` (stereo unspecified) | 14.13 | inhibitor, single point |
| 19 | `COc1nc2ccc(Br)cc2cc1[C@@H](c1ccccc1)[C@@](O)(CCN(C)C)c1cccc2ccccc12` | 3.162 | inhibitor, partial curve |
| 20 | `COCCOc1nc(-c2ccc(Cl)c(Cl)c2)n(-c2ccc(NC(=O)CCl)cc2)n1` | 5.012 | inhibitor, partial curve, poor fit |
| 21 | `OC/C=C/c1ccc(O[C@@H]2O[C@H](CO)[C@@H](O)[C@H](O)[C@H]2O)cc1` | 0.8913 | inhibitor, full curve, poor fit |
| 22 | `CC(C)N(CCC(=O)c1ccc2ccccc2c1)Cc1ccccc1` | 0.7943 | inhibitor, full curve |
| 23 | `CC1(C)C=CN2C(=O)C3=CCCN3C(=O)[C@@H]2C[C@@]12Nc1ccccc1C2=O` | 6.31 | inhibitor, partial curve |
| 24 | `COc1cc2c(cc1O)C(c1ccc(O)cc1)C(C)C(C)C2` (stereo unspecified) | 31.62 | inhibitor, single point |
| 25 | `Oc1ccc(CNc2ccccc2F)c2cccnc12` | 19.95 | inhibitor, partial curve |
| 26 | `Cc1cnc(Nc2ccc(F)cc2Cl)nc1-c1c[nH]c(C(=O)NC(CO)c2cccc(Cl)c2)c1` (stereo unspecified) | 2.818 | inhibitor, full curve, poor fit |
| 27 | `C#CC(=O)N(c1ccc(OC)cc1OC)C(C(=O)NCC(=O)OCC)c1cccs1` (stereo unspecified) | 22.39 | inhibitor, partial curve |
| 28 | `CCc1[nH]c2ccc(OC)cc2c1CCN(C)C` | 6.31 | inhibitor, partial curve, poor fit |
| 29 | `O=C(NCCN1CCN(c2cccc3ccc(O)cc23)CC1)c1ccc(F)cc1` | 14.13 | inhibitor, partial curve, poor fit |
| 30 | `CC1=C(C)C(=O)C(CC[C@](C)(O)CCC[C@H](C)CCC[C@H](C)CCCC(C)C)=C(C)C1=O` | 4.467 | inhibitor, full curve |
| 31 | `Cc1[nH]c2ccccc2c1CCNCc1ccc(/C=C/C(=O)NO)cc1` | 4.467 | inhibitor, partial curve, poor fit |
| 32 | `NCc1ccc(OCCCc2sc(-c3ccc4c(c3)/C(=N/Nc3nc5ccccc5s3)CCC4)nc2C(=O)O)cc1` | 25.12 | inhibitor, partial curve, poor fit |
| 33 | `O=C1C[C@@H](c2ccc(O)cc2)Oc2cc(O)ccc21` | 22.39 | inhibitor, partial curve |
| 34 | `CNC(=O)c1ccc2c(C(=Nc3cccc(CN(C)C)c3)c3ccccc3)c(O)[nH]c2c1` | 7.08 | inhibitor, single point |
| 35 | `O=S1(=O)CCN(Cc2cc(NCC3CCOCC3)c3[nH]c(-c4ccccc4)cc3c2)CC1` | 7.943 | inhibitor, partial curve |
| 36 | `O=C(/C=C/c1cccc(S(=O)(=O)Nc2ccccc2)c1)NO` | 10 | inhibitor, partial curve, poor fit |
| 37 | `COc1cc(O)c2c(c1)/C=C/C[C@H](O)[C@H](O)C(=O)/C=C\C[C@H](C)OC2=O` | 12.59 | inhibitor, partial curve, poor fit |
| 38 | `CC(=O)O[C@H]1CC[C@@]2(CI)C(=CC[C@@H]3[C@@H]2CC[C@]2(C)C(=O)CC[C@@H]32)C1` | 17.78 | inhibitor, partial curve |
| 39 | `Cc1cc2c(c(=O)[nH]1)OC(C(O)CC(C)C)O2` (stereo unspecified) | 0.3162 | inhibitor, full curve, poor fit |
| 40 | `CNCc1ccc(-c2[nH]c3cc(F)cc4c3c2CCNC4=O)cc1` | 15.85 | inhibitor, partial curve, poor fit |
| 41 | `O=C(O)c1ccc(O)c2ncc(N3CCOCC3)cc12` | 3.548 | inhibitor, full curve, poor fit |
| 42 | `C=C(C(=O)OC)C1CCC2(C)C(O[C@@H]3O[C@H](CO)[C@@H](O)[C@H](O)[C@H]3O)CC(=O)C(C)C2C1O` (stereo partly specified) | 4.467 | inhibitor, partial curve, poor fit |
| 43 | `CC(C)(C)OC(=O)N1CCN(c2cccc(NCc3ccc(-c4ccc(C#N)cc4)o3)c2)CC1` | 3.981 | inhibitor, partial curve |
| 44 | `CCOc1ccc2ccccc2c1C(=O)N[C@@H]1C(=O)N2[C@@H]1SC(C)(C)[C@@H]2C(=O)O` | 25.12 | inhibitor, partial curve |
| 45 | `Cn1cc(-c2cnn3c(N)c(Br)c(C4CCCNC4)nc23)cn1` (stereo unspecified) | 8.912 | inhibitor, full curve, poor fit |
| 46 | `Cc1c(CN2CCN(S(C)(=O)=O)CC2)sc2c(N3CCOCC3)nc(-c3cnc(N)nc3)nc12` | 5.623 | inhibitor, full curve, poor fit |
| 47 | `CC1=NN(c2ccccc2)C(=O)C1` | 25.12 | inhibitor, single point |
| 48 | `C=C1CC23CC1CCC2C12OC(=O)C(C)(CCC1O)C2C3C(=O)O` (stereo unspecified) | 10 | inhibitor, partial curve, poor fit |
| 49 | `O=C(CCCCCCC(=O)Nc1ccc([C@H]2O[C@@H](CSc3nc(-c4ccccc4)c(-c4ccccc4)o3)C[C@@H](c3ccc(CO)cc3)O2)cc1)NO` | 39.81 | inhibitor, partial curve, poor fit |
| 50 | `CNS(=O)(=O)c1ccccc1Nc1nc(Nc2ccc(N3CCN(C)CC3)cc2OC)ncc1Br` | 3.981 | inhibitor, partial curve, poor fit |
| 51 | `COc1cc(N2CCC(N)CC2)ccc1Nc1ncc(Cl)c(-c2c[nH]c3ccccc23)n1` | 3.548 | inhibitor, single point |
| 52 | `CC(=O)OCC(N)C(=O)c1ccccc1` (stereo unspecified) | 3.548 | inhibitor, full curve, poor fit |
| 53 | `Cn1nc(-c2ccc(C(F)(F)F)cc2)nc2c(=O)n(C)c(=O)nc1-2` | 2.239 | inhibitor, full curve, poor fit |
| 54 | `CN(C)c1ccc2c(c1)OC(N)=C(C#N)C2c1cccc(C(F)(F)F)c1` (stereo unspecified) | 12.59 | inhibitor, partial curve, poor fit |
| 55 | `N#Cc1c(-c2cc(F)cc(-c3no[n+]([O-])c3C#N)c2)no[n+]1[O-]` | 0.2818 | inhibitor, full curve |

Some entries from above, unchanged:

structure,potency (µM),curve
CC(C)n1nc(-c2cc3cc(O)ccc3[nH]2)c2c(N)ncnc21,14.13,"inhibitor, partial curve"
C=C(C(=O)OC)C1CCC2(C)C(O[C@@H]3O[C@H](CO)[C@@H](O)[C@H](O)[C@H]3O)CC(=O)C(C)C2C1O (stereo partly specified),4.467,"inhibitor, partial curve, poor fit"
CNCc1ccc(-c2[nH]c3cc(F)cc4c3c2CCNC4=O)cc1,15.85,"inhibitor, partial curve, poor fit"
COc1cc(N2CCC(N3CCN(C)CC3)CC2)ccc1Nc1ncc(Cl)c(Nc2ccccc2S(=O)(=O)C(C)C)n1,3.162,"inhibitor, partial curve, poor fit"

From PubChem BioAssay record AID2061315 (NCATS, 2025).